Results taken from PMC2956685, “The 14-3-3ζ Protein Binds to the Cell Adhesion Molecule L1, Promotes L1 Phosphorylation by CKII and Influences L1-Dependent Neurite Outgrowth” (PLoS ONE, 2010).

Amino acid sequences for entries named in this document (tags omitted). A change or cut given only in a name is not applied to a line headed by its entry.
UniProt P11627: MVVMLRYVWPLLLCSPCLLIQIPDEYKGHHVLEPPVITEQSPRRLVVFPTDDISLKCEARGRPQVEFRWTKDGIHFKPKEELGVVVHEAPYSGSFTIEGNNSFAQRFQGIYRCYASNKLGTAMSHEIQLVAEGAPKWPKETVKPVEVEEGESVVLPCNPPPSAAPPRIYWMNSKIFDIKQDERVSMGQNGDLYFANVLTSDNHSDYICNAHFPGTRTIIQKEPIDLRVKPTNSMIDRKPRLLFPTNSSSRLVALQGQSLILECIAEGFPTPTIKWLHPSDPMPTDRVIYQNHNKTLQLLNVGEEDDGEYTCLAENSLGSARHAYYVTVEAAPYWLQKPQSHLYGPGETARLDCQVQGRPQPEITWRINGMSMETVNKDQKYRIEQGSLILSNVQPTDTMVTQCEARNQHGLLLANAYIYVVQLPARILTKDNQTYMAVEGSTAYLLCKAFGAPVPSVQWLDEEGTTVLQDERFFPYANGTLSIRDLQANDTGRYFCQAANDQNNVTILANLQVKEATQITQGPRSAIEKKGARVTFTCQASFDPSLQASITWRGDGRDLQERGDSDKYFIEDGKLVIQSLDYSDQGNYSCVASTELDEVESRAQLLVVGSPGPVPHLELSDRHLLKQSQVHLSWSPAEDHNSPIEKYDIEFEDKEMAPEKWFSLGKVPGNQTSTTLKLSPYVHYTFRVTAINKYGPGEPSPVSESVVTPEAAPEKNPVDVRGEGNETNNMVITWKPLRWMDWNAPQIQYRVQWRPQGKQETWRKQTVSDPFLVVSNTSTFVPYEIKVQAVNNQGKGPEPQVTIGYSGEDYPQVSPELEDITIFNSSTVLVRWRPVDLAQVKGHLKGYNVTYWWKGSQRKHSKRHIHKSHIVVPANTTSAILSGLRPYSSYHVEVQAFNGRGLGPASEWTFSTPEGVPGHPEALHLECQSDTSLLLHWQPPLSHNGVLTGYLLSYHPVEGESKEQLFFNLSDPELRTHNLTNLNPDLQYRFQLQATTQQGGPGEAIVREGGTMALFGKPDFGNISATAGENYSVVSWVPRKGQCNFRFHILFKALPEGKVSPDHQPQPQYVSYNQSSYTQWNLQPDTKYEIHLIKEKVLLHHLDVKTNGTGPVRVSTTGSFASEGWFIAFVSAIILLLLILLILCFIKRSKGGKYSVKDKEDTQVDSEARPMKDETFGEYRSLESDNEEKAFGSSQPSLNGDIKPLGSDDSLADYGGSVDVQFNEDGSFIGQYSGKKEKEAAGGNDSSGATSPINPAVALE

Experiments:
GST-14-3-3ζ = GST-14-3-3ζ (UniProt P63104); experiment: pull-down; 20 µg GST-14-3-3ζ (or 10 µg GST) on Glutathione Sepharose 4B beads; incubated with the whole reaction of His-L1ICD proteins (15 µg) treated with or without CKII; 20 mM Tris-HCl pH 7.4, 300 mM NaCl, Nonidet P-40; blot with anti-L1 74-5H7; both purified
[1] = molecular target: His-L1ICD, non-phosphorylated (intracellular domain of L1) (mouse) (UniProt P11627); experiment: ELISA; intracellular domains of L1 and NCAM180 (5 µg/ml) immobilised on microtiter wells in TBS; increasing concentrations of GST-14-3-3ζ, 1 h at RT, in 1% BSA, 1 mM CaCl2, 1 mM MgCl2 in TBS-Tween; detection with anti-GST; absorbance of GST-only wells subtracted; both purified

Molecule | binding (GST-14-3-3ζ) | binding [1]
His-L1ICD, non-phosphorylated (intracellular domain of L1) (from UniProt P11627) (domain or fragment) | binds | –
GST-14-3-3ζ (natural protein, UniProt P63104 1-245, looked up) MDKNELVQKAKLAEQAERYDDMAACMKSVTEQGAELSNEERNLLSVAYKNVVGARRSSWRVVSSIEQKTEGAEKKQQMAREYREKIETELRDICNDVLSLLEKFLIPNASQAESKVFYLKMKGDYYRYLAEVAAGDDKKGIVDQSQQAYQEAFEISKKEMQPTHPIRLGLALNFSVFYYEILNSPEKACSLAKTAFDEAIAELDTLSEESYKDSTLIMQLLRDNLTLWTSDTQGDEAEAGEGGEN | – | binds

These are yes or no findings as the source states them, for the method shown. A result given as binding can be weak or reduced; the word gives no strength.
